# The supplement of paper PMC8728848
# Some of the results follow.
# Assays:
# Test in all cases: glycan array binding signal (z-score within array); higher = stronger binding
# Settings in all cases: glycan notation: IUPAC condensed, linker removed
# [1] = system: Neu5Ac(a2-3)Gal(b1-3)GlcNAc(b1-2)[Neu5Ac(a2-3)Gal(b1-3)GlcNAc(b1-4)]Man(a1-6)[Neu5Ac(a2-3)Gal(b1-3)GlcNAc(b1-2)Man(a1-3)]Man(b1-4)GlcNAc(b1-4)GlcNAc
# Procedure, shortened: (§1)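 From the Consortium for Functional Glycomics database, 3228 arrays were curated, keeping only those whose protein sequence was available. Binding is given as a within-array Z-score averaged across arrays sharing a protein sequence and across linkers. Negative Z-scores can be read as non-binding.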
# [2] = system: Neu5Ac(a2-3)Gal(b1-3)GlcNAc(b1-3)Gal(b1-3)GlcNAc
# Procedure, shortened: as §1
# [3] = system: Neu5Ac(a2-3)Gal(b1-3)GlcNAc(b1-3)Gal(b1-4)GlcNAc
# Procedure, shortened: as §1
# [4] = system: Neu5Ac(a2-3)Gal(b1-3)GlcNAc(b1-3)GalNAc
# Procedure, shortened: as §1
# [5] = system: Neu5Ac(a2-3)Gal(b1-3)GlcNAc(b1-6)GalNAc
# Procedure, shortened: as §1
# [6] = system: Neu5Ac(a2-3)Gal(b1-3)GlcNAc6S
# Procedure, shortened: as §1
# [7] = system: Neu5Ac(a2-3)Gal(b1-3)GlcNAc
# Procedure, shortened: as §1
# [8] = system: Neu5Ac(a2-3)Gal(b1-3)[Fuc(a1-4)]GlcNAc(b1-3)Gal(b1-3)[Fuc(a1-4)]GlcNAc
# Procedure, shortened: as §1
# [9] = system: Neu5Ac(a2-3)Gal(b1-3)[Fuc(a1-4)]GlcNAc(b1-3)Gal(b1-4)[Fuc(a1-3)]GlcNAc
# Procedure, shortened: as §1
# [10] = system: Neu5Ac(a2-3)Gal(b1-3)[Fuc(a1-4)]GlcNAc
# Procedure, shortened: as §1
# [11] = system: Neu5Ac(a2-3)Gal(b1-3)[GlcNAc(b1-6)]GalNAc
# Procedure, shortened: as §1
# [12] = system: Neu5Ac(a2-3)Gal(b1-3)[Neu5Ac(a2-6)]GalNAc
# Procedure, shortened: as §1
# [13] = system: Neu5Ac(a2-3)Gal(b1-3)[Neu5Ac(a2-6)]GlcNAc(b1-3)[Fuc(a1-3)[Gal(b1-4)]GlcNAc(b1-6)]Gal(b1-4)Glc
# Procedure, shortened: as §1
# [14] = system: Neu5Ac(a2-3)Gal(b1-3)]Neu5Ac(a2-3)Gal(b1-4)]GlcNAc
# Procedure, shortened: as §1
# [15] = system: Neu5Ac(a2-3)Gal(b1-4)GlcNAc(b1-2)Man(a1-3)[GlcNAc(b1-4)][Neu5Ac(a2-3)Gal(b1-4)GlcNAc(b1-2)Man(a1-6)]Man(b1-4)GlcNAc(b1-4)GlcNAc
# Procedure, shortened: as §1
# [16] = system: Neu5Ac(a2-3)Gal(b1-4)GlcNAc(b1-2)Man(a1-3)[Neu5Ac(a2-3)Gal(b1-4)GlcNAc(b1-2)Man(a1-6)]Man(b1-4)GlcNAc(b1-4)GlcNAc
# Procedure, shortened: as §1
# [17] = system: Neu5Ac(a2-3)Gal(b1-4)GlcNAc(b1-2)Man(a1-3)[Neu5Ac(a2-3)Gal(b1-4)GlcNAc(b1-2)Man(a1-6)]Man(b1-4)GlcNAc(b1-4)[Fuc(a1-6)]GlcNAc
# Procedure, shortened: as §1
# [18] = system: Neu5Ac(a2-3)Gal(b1-4)GlcNAc(b1-2)Man(a1-3)[Neu5Ac(a2-6)Gal(b1-4)GlcNAc(b1-2)Man(a1-6)]Man(b1-4)GlcNAc(b1-4)GlcNAc
# Procedure, shortened: as §1
# [19] = system: Neu5Ac(a2-3)Gal(b1-4)GlcNAc(b1-2)Man
# Procedure, shortened: as §1
# [20] = system: Neu5Ac(a2-3)Gal(b1-4)GlcNAc(b1-2)[Neu5Ac(a2-3)Gal(b1-4)GlcNAc(b1-4)]Man(a1-3)[GlcNAc(b1-4)][Neu5Ac(a2-3)Gal(b1-4)GlcNAc(b1-2)[Neu5Ac(a2-3)Gal(b1-4)GlcNAc(b1-6)]Man(a1-6)]Man(b1-4)GlcNAc(b1-4)GlcNAc
# Procedure, shortened: as §1
# [21] = system: Neu5Ac(a2-3)Gal(b1-4)GlcNAc(b1-2)[Neu5Ac(a2-3)Gal(b1-4)GlcNAc(b1-4)]Man(a1-3)[GlcNAc(b1-4)][Neu5Ac(a2-3)Gal(b1-4)GlcNAc(b1-4)Man(a1-6)]Man(b1-4)GlcNAc(b1-4)GlcNAc
# Procedure, shortened: as §1
# [22] = system: Neu5Ac(a2-3)Gal(b1-4)GlcNAc(b1-2)[Neu5Ac(a2-3)Gal(b1-4)GlcNAc(b1-6)]Man(a1-6)[Neu5Ac(a2-3)Gal(b1-4)GlcNAc(b1-2)Man(a1-3)][GlcNAc(b1-4)]Man(b1-4)GlcNAc(b1-4)GlcNAc
# Procedure, shortened: as §1
# [23] = system: Neu5Ac(a2-3)Gal(b1-4)GlcNAc(b1-3)Gal(b1-3)GlcNAc
# Procedure, shortened: as §1
# [24] = system: Neu5Ac(a2-3)Gal(b1-4)GlcNAc(b1-3)Gal(b1-4)GlcNAc(b1-2)Man(a1-3)[Neu5Ac(a2-3)Gal(b1-4)GlcNAc(b1-3)Gal(b1-4)GlcNAc(b1-2)Man(a1-6)]Man(b1-4)GlcNAc(b1-4)GlcNAc
# Procedure, shortened: as §1
# [25] = system: Neu5Ac(a2-3)Gal(b1-4)GlcNAc(b1-3)Gal(b1-4)GlcNAc(b1-3)Gal(b1-4)GlcNAc(b1-2)Man(a1-3)[Neu5Ac(a2-3)Gal(b1-4)GlcNAc(b1-3)Gal(b1-4)GlcNAc(b1-3)Gal(b1-4)GlcNAc(b1-2)Man(a1-6)]GalNAc
# Procedure, shortened: as §1
# [26] = system: Neu5Ac(a2-3)Gal(b1-4)GlcNAc(b1-3)Gal(b1-4)GlcNAc(b1-3)Gal(b1-4)GlcNAc
# Procedure, shortened: as §1
# [27] = system: Neu5Ac(a2-3)Gal(b1-4)GlcNAc(b1-3)Gal(b1-4)GlcNAc(b1-3)GalNAc
# Procedure, shortened: as §1
# [28] = system: Neu5Ac(a2-3)Gal(b1-4)GlcNAc(b1-3)Gal(b1-4)GlcNAc(b1-3)[Neu5Ac(a2-3)Gal(b1-4)GlcNAc(b1-3)Gal(b1-4)GlcNAc(b1-6)]GalNAc
# Procedure, shortened: as §1
# [29] = system: Neu5Ac(a2-3)Gal(b1-4)GlcNAc(b1-3)Gal(b1-4)GlcNAc(b1-6)[Gal(b1-3)]GalNAc
# Procedure, shortened: as §1
# [30] = system: Neu5Ac(a2-3)Gal(b1-4)GlcNAc(b1-3)Gal(b1-4)GlcNAc
# Procedure, shortened: as §1
# [31] = system: Neu5Ac(a2-3)Gal(b1-4)GlcNAc(b1-3)Gal(b1-4)[Fuc(a1-3)]GlcNAc
# Procedure, shortened: as §1
# [32] = system: Neu5Ac(a2-3)Gal(b1-4)GlcNAc(b1-3)GalNAc
# Procedure, shortened: as §1
substance,measurement,setting,value
MpAFP RI GFP (Marinomonas primoryensis),glycan array binding signal (z-score),[1],0.633
same,glycan array binding signal (z-score),[2],-0.728
same,glycan array binding signal (z-score),[3],-0.468
same,glycan array binding signal (z-score),[4],-0.699
same,glycan array binding signal (z-score),[5],-0.526
same,glycan array binding signal (z-score),[6],-0.213
same,glycan array binding signal (z-score),[7],-0.479
same,glycan array binding signal (z-score),[8],0.153
same,glycan array binding signal (z-score),[9],-0.14
same,glycan array binding signal (z-score),[10],-0.138
same,glycan array binding signal (z-score),[11],-0.527
same,glycan array binding signal (z-score),[12],-0.687
same,glycan array binding signal (z-score),[13],0.017
same,glycan array binding signal (z-score),[14],-0.556
same,glycan array binding signal (z-score),[15],-0.405
same,glycan array binding signal (z-score),[16],-0.33
same,glycan array binding signal (z-score),[17],-0.002
same,glycan array binding signal (z-score),[18],0.762
same,glycan array binding signal (z-score),[19],1.94
same,glycan array binding signal (z-score),[20],-0.808
same,glycan array binding signal (z-score),[21],-0.276
same,glycan array binding signal (z-score),[22],-0.012
same,glycan array binding signal (z-score),[23],-0.764
same,glycan array binding signal (z-score),[24],0.015
same,glycan array binding signal (z-score),[25],1.64
same,glycan array binding signal (z-score),[26],-0.621
same,glycan array binding signal (z-score),[27],-0.471
same,glycan array binding signal (z-score),[28],0.247
same,glycan array binding signal (z-score),[29],-0.297
same,glycan array binding signal (z-score),[30],0.123
same,glycan array binding signal (z-score),[31],-0.446
same,glycan array binding signal (z-score),[32],-0.519

# Fetched one by one from the list above, 2 records:
substance,measurement,setting,value
MpAFP RI GFP (Marinomonas primoryensis),glycan array binding signal (z-score),[7],-0.479
same,glycan array binding signal (z-score),[19],1.94
